Patent US11771717B2, “Applications of pair-production for improved radiotherapy” (Henry Ford Health System, priority 2017, dated 2023)
“Also recorded” adds a separate entry of the source.

Assay: Emission spectra of irradiated solution by scintillation detector (evidence of pair production)
Details: 25 g dissolved in 50 ml of water

Substance: sodium phosphotungstate hydrate
- emission spectra with vs without dissolved metal (irradiated with 6 MV photons): nearly identical with or without dissolved metal
- emission of photons at 511 keV (irradiated with 18 MV photons, hydrate): increased emission of photons around 511 keV and higher; also recorded: significant increase in photons emitted at 511 keV
